Values quoted from earlier work as cited in US20150184159A1, “USE OF COX-3 BINDING MOLECULES FOR MODULATING AUTOPHAGY” (priority 2013, published 2015).
At least one structure is not confirmed: it was looked up by name or label, or the drawing left a doubt.

Test system: EMCV proteins
Conditions: cited from earlier work

For `CO[C@H]1C[C@@H]2CC[C@@H](C)[C@@](O)(O2)C(=O)C(=O)N2CCCC[C@H]2C(=O)O[C@H]([C@H](C)C[C@@H]2CC[C@@H](O)[C@H](OC)C2)CC(=O)[C@H](C)/C=C(\C)[C@@H](O)[C@@H](OC)C(=O)[C@H](C)C[C@H](C)/C=C/C=C/C=C/1C` [rapamycin], the “protein synthesis of EMCV proteins” value is listed as “stimulate”.
